{"source": "patent US20230167062A1", "about": "“AMIDE COMPOUND CONTAINING SUBSTITUTED ACETOPHENONE STRUCTURAL FRAGMENTS AND PREPARATION METHOD AND APPLICATION THEREOF” (SHENYANG SINOCHEM AGROCHEMICALS R&D CO., LTD., priority 2019, published 2023)", "tested_on": "wheat powdery mildew", "test": "In vivo protection activity against wheat powdery mildew (live pot determination)", "conditions": "dose of 100 ppm", "method": "The test of in vivo protection effect is conducted on various fungal diseases of plants through samples of the compounds of the present invention. The determination results of the fungal activity are shown in the following embodiments.\nThe determination method is as follows: the to-be-determined sample of the compound of general formula I obtained above was dissolved with a small amount of solvent (the type of the solvent is, for example, acetone, methanol, DMF, etc., and is selected according to the dissolving ability to the sample; and the volume ratio of the solvent amount to the liquid spray amount is equal to or less than 0.05) by a live pot determination method, and diluted with water containing 0.1% Tween 80 to prepare to-be-determined liquid with required concentration. On a crop sprayer, the to-be-determined liquid was sprayed onto disease host plants (the host plants are standard potted seedlings cultivated in a greenhouse), and the disease was inoculated after 24 hours. According to the characteristics of the disease, the diseased plants that need to be cultivated under temperature control and moisturizing were inoculated and then placed in an artificial climate chamber for cultivation. […] After full onset through control (usually one week), the disease prevention effect of the compound was evaluated.", "note": "Some results were stated once for a whole list of compounds, not compound by compound.", "data": [{"smiles": "Cc1cc(OC(C)C)ccc1C(=O)C(C)(C)NC(=O)c1cccnc1C(F)F", "note": "[Compound I-2]", "values": [{"measurement": "control effects on wheat powdery mildew", "result": "more than 90%"}]}]}
